Measured values reported in patent US20230183336A1 (MODMAB THERAPEUTICS, published 2023).
Results are given in words; binding and its absence hold for the method and conditions named. Some binding calls cover weakened binding; strength is not graded here.

Biological target: T1, recombinant human LRP6-Fc chimera (human, UniProt O75581 20-1370)
T1 construct: extracellular domain; also called ECD of human LRP6; not shown: Fc part of the chimera
T1 sequence (looked up): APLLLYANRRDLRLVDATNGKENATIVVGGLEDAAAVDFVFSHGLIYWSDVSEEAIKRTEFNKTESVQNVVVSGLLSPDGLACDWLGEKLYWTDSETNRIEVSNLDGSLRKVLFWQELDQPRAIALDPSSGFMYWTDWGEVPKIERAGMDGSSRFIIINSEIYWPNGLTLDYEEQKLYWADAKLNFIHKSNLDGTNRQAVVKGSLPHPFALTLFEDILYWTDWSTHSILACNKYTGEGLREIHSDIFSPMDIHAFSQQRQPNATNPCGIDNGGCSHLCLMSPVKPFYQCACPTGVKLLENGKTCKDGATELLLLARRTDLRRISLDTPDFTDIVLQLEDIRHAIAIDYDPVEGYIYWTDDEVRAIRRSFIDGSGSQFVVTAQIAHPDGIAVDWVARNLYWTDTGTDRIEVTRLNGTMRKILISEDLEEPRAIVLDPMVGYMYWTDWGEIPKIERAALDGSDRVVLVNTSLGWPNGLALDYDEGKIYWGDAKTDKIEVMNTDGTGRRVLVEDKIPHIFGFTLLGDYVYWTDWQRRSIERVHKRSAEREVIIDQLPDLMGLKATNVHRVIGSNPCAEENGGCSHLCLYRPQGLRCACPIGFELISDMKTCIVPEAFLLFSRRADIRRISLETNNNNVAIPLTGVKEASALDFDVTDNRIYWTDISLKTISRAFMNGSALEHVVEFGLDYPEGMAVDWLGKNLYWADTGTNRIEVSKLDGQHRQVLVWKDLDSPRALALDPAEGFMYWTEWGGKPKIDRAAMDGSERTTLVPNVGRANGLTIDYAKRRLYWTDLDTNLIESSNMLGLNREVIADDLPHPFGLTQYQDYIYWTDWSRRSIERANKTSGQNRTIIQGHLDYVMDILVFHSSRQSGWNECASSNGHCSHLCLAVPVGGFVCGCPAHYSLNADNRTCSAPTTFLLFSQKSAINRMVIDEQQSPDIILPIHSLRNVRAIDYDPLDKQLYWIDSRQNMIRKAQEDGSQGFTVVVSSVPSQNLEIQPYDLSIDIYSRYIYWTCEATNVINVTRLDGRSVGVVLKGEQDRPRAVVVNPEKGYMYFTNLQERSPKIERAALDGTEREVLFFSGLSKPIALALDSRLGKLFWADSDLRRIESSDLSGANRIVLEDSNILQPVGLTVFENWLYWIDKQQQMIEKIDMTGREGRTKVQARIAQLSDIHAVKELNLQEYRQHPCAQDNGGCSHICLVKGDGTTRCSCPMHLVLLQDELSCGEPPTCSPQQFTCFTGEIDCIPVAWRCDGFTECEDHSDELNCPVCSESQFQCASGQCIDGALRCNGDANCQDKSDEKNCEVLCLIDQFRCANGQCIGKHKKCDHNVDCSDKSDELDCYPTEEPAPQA
Assay: single-point ELISA, coated antigen, purified Fab or IgG1, anti-kappa-HRP

B1: LRP5-R3O_D3 (antibody, V domains shown)
VH: EVQLVESGGGLVQPGGSLRLSCAASGFNFSSSSIHWVRQAPGKGLEWVASISSSYGYTYYADSVKGRFTISADTSKNTAYLQMNSLRAEDTAVYYCARSWAMDYWGQGTLVTVSS
VL: DIQMTQSPSSLSASVGDRVTITCRASQSVSSAVAWYQQKPGKAPKLLIYSASSLYSGVPSRFSGSRSGTDFTLTISSLQPEDFATYYCQQYWAYYSPITFGQGTKVEIKR
notes: Fab-phage in the screen; also called LRP5-R30_D3; LRP5-R30D3
With B1 the binding was “binds”.
